The text below walks through data of the supplement of paper PMC11006884.

Amino acid sequences for entries named in this document (tags omitted). A change or cut given only in a name is not applied to a line headed by its entry.
UniProt O00232: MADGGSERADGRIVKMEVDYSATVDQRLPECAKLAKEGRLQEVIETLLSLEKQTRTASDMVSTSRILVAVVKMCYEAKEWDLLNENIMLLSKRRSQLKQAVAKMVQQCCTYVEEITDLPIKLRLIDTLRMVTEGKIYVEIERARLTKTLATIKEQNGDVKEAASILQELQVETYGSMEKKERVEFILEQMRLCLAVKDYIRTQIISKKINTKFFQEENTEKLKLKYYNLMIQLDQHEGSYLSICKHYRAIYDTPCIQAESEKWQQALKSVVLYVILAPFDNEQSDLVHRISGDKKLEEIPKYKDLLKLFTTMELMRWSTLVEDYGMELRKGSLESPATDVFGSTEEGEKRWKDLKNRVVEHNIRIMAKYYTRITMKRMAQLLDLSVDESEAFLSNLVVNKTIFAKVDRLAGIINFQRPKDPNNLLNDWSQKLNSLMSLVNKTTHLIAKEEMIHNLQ
UniProt O14964, whole entry, looked up: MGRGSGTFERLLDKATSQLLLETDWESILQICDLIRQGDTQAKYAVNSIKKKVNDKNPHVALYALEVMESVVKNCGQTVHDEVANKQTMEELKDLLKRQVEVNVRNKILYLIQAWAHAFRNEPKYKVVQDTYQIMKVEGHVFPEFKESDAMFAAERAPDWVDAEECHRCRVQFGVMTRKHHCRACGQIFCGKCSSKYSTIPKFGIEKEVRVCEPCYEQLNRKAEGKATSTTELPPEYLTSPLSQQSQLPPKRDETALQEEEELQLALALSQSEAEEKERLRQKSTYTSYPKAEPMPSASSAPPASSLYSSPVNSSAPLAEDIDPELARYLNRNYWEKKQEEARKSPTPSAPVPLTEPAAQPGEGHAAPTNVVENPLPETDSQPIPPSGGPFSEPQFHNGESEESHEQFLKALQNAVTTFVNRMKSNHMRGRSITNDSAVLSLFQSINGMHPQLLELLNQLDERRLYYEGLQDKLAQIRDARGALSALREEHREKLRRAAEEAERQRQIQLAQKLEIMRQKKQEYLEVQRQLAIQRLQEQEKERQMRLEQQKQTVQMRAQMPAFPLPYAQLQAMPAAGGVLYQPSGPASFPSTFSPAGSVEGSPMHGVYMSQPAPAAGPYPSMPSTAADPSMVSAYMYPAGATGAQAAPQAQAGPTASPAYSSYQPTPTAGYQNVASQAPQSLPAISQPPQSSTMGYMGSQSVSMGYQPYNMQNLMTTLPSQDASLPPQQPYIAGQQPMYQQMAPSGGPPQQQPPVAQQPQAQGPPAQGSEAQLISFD
UniProt O14617: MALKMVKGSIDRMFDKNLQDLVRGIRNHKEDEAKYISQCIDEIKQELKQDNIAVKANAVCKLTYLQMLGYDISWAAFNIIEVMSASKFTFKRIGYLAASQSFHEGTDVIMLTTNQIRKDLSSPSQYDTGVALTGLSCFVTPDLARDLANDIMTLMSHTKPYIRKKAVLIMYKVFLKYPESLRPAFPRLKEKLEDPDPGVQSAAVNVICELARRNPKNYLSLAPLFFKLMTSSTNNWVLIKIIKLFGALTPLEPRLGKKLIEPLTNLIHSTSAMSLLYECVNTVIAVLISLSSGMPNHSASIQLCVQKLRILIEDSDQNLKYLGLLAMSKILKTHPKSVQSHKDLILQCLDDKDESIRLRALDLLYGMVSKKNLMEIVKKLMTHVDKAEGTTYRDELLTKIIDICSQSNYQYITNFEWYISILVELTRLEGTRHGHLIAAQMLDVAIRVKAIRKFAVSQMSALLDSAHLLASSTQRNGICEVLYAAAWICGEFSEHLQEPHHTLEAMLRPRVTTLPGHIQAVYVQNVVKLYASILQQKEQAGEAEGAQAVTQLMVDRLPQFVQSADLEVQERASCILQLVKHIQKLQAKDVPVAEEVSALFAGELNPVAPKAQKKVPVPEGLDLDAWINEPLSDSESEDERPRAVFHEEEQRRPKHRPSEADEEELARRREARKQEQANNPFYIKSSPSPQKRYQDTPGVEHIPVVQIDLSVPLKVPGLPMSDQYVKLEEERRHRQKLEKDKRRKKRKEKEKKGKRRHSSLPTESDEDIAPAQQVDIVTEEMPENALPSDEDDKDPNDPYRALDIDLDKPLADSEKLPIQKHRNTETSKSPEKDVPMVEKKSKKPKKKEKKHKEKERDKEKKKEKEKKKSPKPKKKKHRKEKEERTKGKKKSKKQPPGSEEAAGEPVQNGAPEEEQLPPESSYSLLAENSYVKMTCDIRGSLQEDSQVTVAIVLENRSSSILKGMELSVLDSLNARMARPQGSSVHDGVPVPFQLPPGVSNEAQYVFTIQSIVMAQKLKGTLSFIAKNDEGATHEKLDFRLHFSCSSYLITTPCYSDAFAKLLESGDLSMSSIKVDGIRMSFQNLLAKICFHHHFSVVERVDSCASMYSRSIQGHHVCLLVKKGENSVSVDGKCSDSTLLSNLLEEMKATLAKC
UniProt O00411: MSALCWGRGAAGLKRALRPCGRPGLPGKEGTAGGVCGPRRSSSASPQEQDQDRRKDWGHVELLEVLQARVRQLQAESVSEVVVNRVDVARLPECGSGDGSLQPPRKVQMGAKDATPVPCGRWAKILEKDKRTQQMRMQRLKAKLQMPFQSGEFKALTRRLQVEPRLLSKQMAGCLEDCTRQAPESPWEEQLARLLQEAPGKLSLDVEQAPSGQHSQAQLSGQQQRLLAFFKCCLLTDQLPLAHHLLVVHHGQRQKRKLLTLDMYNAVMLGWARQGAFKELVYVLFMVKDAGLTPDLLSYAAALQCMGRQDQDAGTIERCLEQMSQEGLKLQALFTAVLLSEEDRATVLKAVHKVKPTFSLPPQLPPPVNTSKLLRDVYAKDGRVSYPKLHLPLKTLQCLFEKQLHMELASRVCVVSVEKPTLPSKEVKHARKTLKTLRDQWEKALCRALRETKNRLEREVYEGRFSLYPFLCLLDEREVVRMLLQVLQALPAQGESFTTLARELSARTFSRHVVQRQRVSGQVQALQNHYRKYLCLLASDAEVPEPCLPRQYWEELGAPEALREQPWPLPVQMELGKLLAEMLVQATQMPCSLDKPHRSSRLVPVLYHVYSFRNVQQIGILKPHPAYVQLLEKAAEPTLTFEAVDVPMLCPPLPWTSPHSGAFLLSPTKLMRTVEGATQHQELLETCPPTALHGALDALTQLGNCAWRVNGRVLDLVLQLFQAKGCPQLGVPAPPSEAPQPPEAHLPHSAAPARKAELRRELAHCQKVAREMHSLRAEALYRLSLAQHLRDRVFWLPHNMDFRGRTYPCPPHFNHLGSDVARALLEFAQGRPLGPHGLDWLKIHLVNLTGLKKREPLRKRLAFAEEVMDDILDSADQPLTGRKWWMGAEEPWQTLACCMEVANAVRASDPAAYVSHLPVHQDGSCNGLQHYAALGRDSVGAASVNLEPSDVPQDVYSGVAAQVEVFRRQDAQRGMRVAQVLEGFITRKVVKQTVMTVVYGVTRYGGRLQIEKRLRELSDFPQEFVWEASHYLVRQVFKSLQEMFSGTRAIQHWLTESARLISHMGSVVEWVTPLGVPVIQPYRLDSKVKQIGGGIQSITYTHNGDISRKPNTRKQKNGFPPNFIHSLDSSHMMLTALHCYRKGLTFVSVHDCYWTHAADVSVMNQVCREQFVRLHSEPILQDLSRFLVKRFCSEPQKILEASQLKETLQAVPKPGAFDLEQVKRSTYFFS
UniProt O15084: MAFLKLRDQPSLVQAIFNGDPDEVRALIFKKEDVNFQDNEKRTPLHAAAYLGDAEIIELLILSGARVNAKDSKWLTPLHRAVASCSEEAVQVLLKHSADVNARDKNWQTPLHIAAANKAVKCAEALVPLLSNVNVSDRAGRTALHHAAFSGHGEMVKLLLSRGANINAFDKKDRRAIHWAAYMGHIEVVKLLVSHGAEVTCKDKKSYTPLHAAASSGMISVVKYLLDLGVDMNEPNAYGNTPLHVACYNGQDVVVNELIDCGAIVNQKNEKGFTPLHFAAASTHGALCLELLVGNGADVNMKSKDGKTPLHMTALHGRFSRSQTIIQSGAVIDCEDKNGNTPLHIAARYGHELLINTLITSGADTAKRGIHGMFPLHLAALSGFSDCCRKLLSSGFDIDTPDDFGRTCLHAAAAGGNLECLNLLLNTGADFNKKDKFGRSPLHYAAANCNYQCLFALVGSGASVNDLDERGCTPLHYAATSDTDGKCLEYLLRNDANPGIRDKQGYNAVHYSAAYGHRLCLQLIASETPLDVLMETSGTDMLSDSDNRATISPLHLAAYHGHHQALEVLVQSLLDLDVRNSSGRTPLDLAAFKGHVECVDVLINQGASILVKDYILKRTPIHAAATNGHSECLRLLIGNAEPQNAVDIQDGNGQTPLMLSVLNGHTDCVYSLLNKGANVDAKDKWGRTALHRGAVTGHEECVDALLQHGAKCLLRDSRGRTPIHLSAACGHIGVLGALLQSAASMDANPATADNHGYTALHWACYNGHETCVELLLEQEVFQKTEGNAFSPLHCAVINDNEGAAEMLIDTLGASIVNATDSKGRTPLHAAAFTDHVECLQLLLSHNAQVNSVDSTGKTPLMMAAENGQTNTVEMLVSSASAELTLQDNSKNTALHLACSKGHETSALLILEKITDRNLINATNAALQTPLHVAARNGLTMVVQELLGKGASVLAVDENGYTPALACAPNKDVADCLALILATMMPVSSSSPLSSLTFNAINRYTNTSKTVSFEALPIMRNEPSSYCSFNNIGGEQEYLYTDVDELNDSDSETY
UniProt O14777: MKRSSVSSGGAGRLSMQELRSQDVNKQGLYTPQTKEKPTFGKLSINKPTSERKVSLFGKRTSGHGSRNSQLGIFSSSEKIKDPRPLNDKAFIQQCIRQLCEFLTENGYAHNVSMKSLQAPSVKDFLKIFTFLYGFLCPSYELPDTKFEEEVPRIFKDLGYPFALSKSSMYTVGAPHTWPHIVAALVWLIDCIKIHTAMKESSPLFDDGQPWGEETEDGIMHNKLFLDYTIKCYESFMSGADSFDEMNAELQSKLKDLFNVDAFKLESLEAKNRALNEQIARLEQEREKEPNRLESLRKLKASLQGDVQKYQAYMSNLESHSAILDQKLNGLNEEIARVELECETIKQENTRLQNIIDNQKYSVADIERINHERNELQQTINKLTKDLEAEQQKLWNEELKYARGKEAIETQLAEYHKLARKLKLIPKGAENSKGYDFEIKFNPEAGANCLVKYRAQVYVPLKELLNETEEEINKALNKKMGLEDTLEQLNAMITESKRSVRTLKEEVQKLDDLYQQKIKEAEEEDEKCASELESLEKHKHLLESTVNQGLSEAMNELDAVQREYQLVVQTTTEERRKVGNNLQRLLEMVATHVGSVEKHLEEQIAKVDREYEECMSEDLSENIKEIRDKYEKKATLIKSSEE
UniProt O14979: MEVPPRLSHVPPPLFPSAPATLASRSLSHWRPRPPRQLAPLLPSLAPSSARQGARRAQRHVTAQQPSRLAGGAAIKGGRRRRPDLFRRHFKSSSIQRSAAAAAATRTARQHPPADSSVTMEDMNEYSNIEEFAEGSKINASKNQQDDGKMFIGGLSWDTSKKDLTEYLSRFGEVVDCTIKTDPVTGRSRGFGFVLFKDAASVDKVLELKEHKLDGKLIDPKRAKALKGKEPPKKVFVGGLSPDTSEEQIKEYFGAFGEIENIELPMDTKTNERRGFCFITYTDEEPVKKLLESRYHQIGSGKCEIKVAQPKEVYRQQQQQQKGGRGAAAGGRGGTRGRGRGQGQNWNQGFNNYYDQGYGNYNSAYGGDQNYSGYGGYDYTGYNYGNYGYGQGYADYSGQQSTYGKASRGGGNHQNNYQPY
UniProt O15381: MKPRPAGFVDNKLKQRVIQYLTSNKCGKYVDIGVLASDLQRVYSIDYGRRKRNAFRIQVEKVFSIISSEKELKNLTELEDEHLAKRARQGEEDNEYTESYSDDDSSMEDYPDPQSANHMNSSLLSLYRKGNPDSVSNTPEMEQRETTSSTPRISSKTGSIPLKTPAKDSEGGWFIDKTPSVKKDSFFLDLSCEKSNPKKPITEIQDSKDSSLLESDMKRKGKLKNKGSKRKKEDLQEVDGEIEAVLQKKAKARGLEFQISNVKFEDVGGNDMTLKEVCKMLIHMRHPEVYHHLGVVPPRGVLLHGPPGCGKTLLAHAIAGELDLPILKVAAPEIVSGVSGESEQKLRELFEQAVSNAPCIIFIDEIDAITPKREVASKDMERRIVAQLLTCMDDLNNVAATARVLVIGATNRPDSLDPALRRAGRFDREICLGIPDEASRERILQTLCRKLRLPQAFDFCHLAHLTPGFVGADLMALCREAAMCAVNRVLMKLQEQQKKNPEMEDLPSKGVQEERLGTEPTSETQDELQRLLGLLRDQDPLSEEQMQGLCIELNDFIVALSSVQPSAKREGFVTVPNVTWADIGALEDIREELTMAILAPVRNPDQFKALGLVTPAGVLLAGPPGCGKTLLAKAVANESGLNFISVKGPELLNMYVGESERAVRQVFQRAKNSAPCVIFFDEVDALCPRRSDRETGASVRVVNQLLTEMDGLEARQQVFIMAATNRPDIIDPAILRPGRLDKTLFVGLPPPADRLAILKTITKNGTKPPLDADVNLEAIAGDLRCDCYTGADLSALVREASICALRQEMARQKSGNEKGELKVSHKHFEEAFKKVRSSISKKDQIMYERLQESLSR

Only a part is listed here, and it is no random draw.

Compound in the assay: COC(=O)C#Cc1ccccc1 [methyl 3-phenylpropiolate]
As to the kind of experiment: log2 ratio of iodoacetamide-alkyne labeling of the cysteine site, DMSO over compound (competition); higher = stronger covalent engagement of the cysteine by the compound, active = 1 or more. As to conditions: 500 µM; treatment time 1 h; system: HEK293T cell lysate. The method in brief:
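Reporter intensities give each cysteine's log2 competition ratio as the mean of control channels over the mean of compound channels. The samples were HEK293T lysate (2 mg/mL) given vehicle or electrophile (500 µM, 1 h, ambient temperature), then iodoacetamide alkyne (1 h), followed by click coupling to sCIP-TMT reagents, pooling, trypsin digestion overnight at 37 °C, streptavidin enrichment, acid elution, Orbitrap Eclipse LC-MS/MS with FAIMS and FragPipe quantification. Duplicate channels and three replicates were run, and cysteines quantified in only one replicate were discarded.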
As to TRAFD1 C267 (UniProt O14545), the “log2 ratio of iodoacetamide-alkyne labeling” value (“log2 ratio” for short) is inactive: 0.282.
Take PSMD12 C255 (UniProt O00232): the “log2 ratio” value was inactive: -0.0937.
For HGS C215 (UniProt O14964), the “log2 ratio” value was inactive: -0.207.
Consider SETD1A C243 (UniProt O15047), for which the “log2 ratio” value was inactive: 0.308.
With AP3D1 C348 (UniProt O14617), the “log2 ratio” value is inactive: 0.171.
Turning to XPO1 C119 (UniProt O14980), the “log2 ratio” value was inactive: 0.411.
CLIC1 C24 (UniProt O00299): the “log2 ratio” value was inactive: -0.0212.
In the case of DYNC1LI2 C104 (UniProt O43237), the “log2 ratio” value was inactive: -0.124.
On to SIVA1 C62 (UniProt O15304), for which the “log2 ratio” value was inactive: 0.0239.
Consider CLIC1 C223 (UniProt O00299), for which the “log2 ratio” value is inactive: -0.133.
POLRMT C925 (UniProt O00411): the “log2 ratio” value is inactive: -0.0567.
As for KDM6A C960 (UniProt O15550), the “log2 ratio” value is inactive: 0.0999.
Turning to DDX3X C128 (UniProt O00571), the “log2 ratio” value was inactive: 0.406.
Take STX16 C150 (UniProt O14662): the “log2 ratio” value was inactive: 0.0256.
Consider HGS C190 (UniProt O14964), for which the “log2 ratio” value is inactive: 0.0953.
In the case of ACOT8 C13 (UniProt O14734), the “log2 ratio” value was inactive: 0.228.
The figure for TCERG1 C1062 (UniProt O14776) is inactive: 0.116; for TXNDC9 C94 (UniProt O14530) it is inactive: -0.0861; for O15320_C147 (UniProt Q96PC5+O15320) it is inactive: -0.197.
Next, POLRMT C650 (UniProt O00411): inactive: 0.197.
For HAT1 C27 (UniProt O14929), the “log2 ratio” value was inactive: 0.201.
For POLRMT C535 (UniProt O00411), the “log2 ratio” value was inactive: 0.0235.
MGST3 C56 (UniProt O14880): the “log2 ratio” value is inactive: 0.0847.
Take ARPC2 C120 (UniProt O15144): the “log2 ratio” value was inactive: -0.0732.
The figure for UniProt O43159_C320 is inactive: 0.138; for PFAS C318 (UniProt O15067) it is inactive: 0.0015.
The figure for ANKRD28 C701 (UniProt O15084) is inactive: 0.336; for AP3D1 C1133 (UniProt O14617) it is inactive: -0.597; for DVL2 C80 (UniProt O14641) it is inactive: 0.142.
The figure for PEX7 C5 (UniProt O00628) is inactive: 0.453.
NDC80 C449 (UniProt O14777): the “log2 ratio” value is inactive: 0.0971.
As for UniProt O14979_C177, the “log2 ratio” value is inactive: 0.0873.
With PRMT5 C22 (UniProt O14744), the “log2 ratio” value is inactive: 0.271.
For the target SMCHD1 C897 (UniProt A6NHR9), the “log2 ratio” value is inactive: 0.408.
The figure for ARHGEF11 C402 (UniProt O15085) is inactive: 0.458; for PMM2 C103 (UniProt O15305) it is inactive: -0.0926.
The figure for NVL C391 (UniProt O15381) is inactive: 0.0922.
For the target XPO1 C164 (UniProt O14980), the “log2 ratio” value is inactive: -0.00596.
